Measured values from US20050064576A1, “Methods for remediating materials contaminated with halogenated aromatic compounds” (priority 2003, published 2005).

Assays:
[1] = tested on: D. ethenogenes strain 195; experiment: Chlorobenzene dechlorination by cultures of D. ethenogenes strain 195; design: species or system Dehalococcoides ethenogenes; settings: for Original clorobenzene Remaining: 2 mM chlorobenzene; for Dechlorination by strain 195: with first dose of PCE
[2] = tested on: D. ethenogenes strain 195; experiment: Transfer of dechlorination activity with compound as sole electron acceptor; design: species or system Dehalococcoides ethenogenes
[3] = tested on: mixed culture containing D. ethenogenes strain 195; experiment: Dechlorination by butyrate-PCE enriched mixed culture containing D. ethenogenes strain 195; design: species or system Dehalococcoides ethenogenes; settings: for Dechlorination products: 34° C., PCE added on day 0
[4] = tested on: D. ethenogenes strain 195 pure culture; experiment: Dehalogenation of sediment-applied chloroaromatics by D. ethenogenes strain 195 pure culture; design: species or system Dehalococcoides ethenogenes; settings: for Dechlorination products: 28° C., sediment method; for Dechlorination daughter products: after 249 days of incubation
[5] = tested on: Dehalococcoides sp. strain CBDB1; settings: cited from earlier work
[6] = after 150 days, starter dose of PCE
[7] = mixed culture, dioxin amended to sediment

Clc1ccc(Cl)c(Cl)c1Cl [1,2,3,4-TeCB]
Original clorobenzene Remaining [1, 6]: 46 mol %
Dechlorination products formed: DCB 1,2 [1, 6]: 1 mol %
Dechlorination products formed: DCB 1,3 [1, 6]: 20 mol %
Dechlorination products formed: TCB 1,2,4 [1, 6]: 30 mol %
Dechlorination products formed: TCB 1,3,5 [1, 6]: 3 mol %
Utilization by strain 195 [2]: utilized

Clc1c(Cl)c(Cl)c2c(c1Cl)Oc1ccccc1O2 [1,2,3,4-TeCDD, 1,2,3,4-Tetrachlorodibenzo-p-dioxin]
Dechlorination efficiency by mode of addition ([3]; amended onto glass beads or serum bottle surfaces, versus sediment): less efficient
Dechlorination products [3, 7]: mixture of 1,2,4-trichlorodibenzo-p-dioxin (1,2,4-TrCDD) and 1,3-DCDD
Time for dechlorination to product mixture [3, 7]: ≤ 40 days
Original substrate remaining when dechlorination ceased ([3]; mixed culture, dioxin amended to sediment, despite re-amendment of electron donor): about 10%
Dechlorination products [4]: primarily 1,2,4-TrCDD, with a trace of 1,3-DCDD
Dechlorination products by strain CBDB1 [5]: 2,3-DCDD and 2-MCDD

Clc1c(Cl)c(Cl)c2c(oc3ccccc32)c1Cl [1,2,3,4-TeCDF, 1,2,3,4-Tetrachlorodibenzofuran]
Dechlorination products [4]: a trichlorinated dibenzo-furan (TrCDF) congener

Clc1c(Cl)c(Cl)c2ccccc2c1Cl [1,2,3,4-TeCN, 1,2,3,4-tetrachloronaphthalene]
Dechlorination daughter products [4]: primarily to an unidentified dichloronaphthalene congener (DCN)

Clc1cc(Cl)c(Cl)c(Cl)c1 [1,2,3,5-TeCB]
Original clorobenzene Remaining [1, 6]: 93 mol %
Dechlorination products formed: TCB 1,2,4 [1, 6]: 1 mol %
Dechlorination products formed: TCB 1,3,5 [1, 6]: 6 mol %

Clc1cccc(Cl)c1Cl [1,2,3-TCB]
Growth of strain CBDB1 with compound [5]: exhibits growth

Clc1cc(Cl)c(Cl)cc1Cl [1,2,4,5-TeCB]
Original clorobenzene Remaining [1, 6]: 25 mol %
Dechlorination products formed: DCB 1,3 [1, 6]: 5 mol %
Dechlorination products formed: DCB 1,4 [1, 6]: 10 mol %
Dechlorination products formed: TCB 1,2,4 [1, 6]: 60 mol %
Utilization by strain 195 [2]: utilized

Clc1ccc(Cl)c(Cl)c1 [1,2,4-TCB]
Growth of strain CBDB1 with compound [5]: exhibits growth

Clc1c(Cl)c(Cl)c(-c2ccccc2)c(Cl)c1Cl [2,3,4,5,6-PeCB, 2,3,4,5,6-pentachlorobiphenyl]
Dechlorination products [4]: 2,3,4,6-TeCB and/or 2,3,5,6-TeCB (these congeners could not be resolved) and 2,4,6-trichlorobiphenyl (2,4,6-TrCB)

Clc1cc2c(cc1Cl)Oc1cc(Cl)c(Cl)cc1O2 [2,3,7,8-TeCDD]
Dechlorination daughter products [4]: not detected

Clc1cc2c(cc1Cl)Oc1ccccc1O2 [2,3-DCDD, 2,3-dichlorodibenzo-p-dioxin]
Dechlorination daughter products [4]: not detected

Clc1c(Cl)c(Cl)c(Cl)c(Cl)c1Cl [HCB, hexachlorobenzene]
Original clorobenzene Remaining [1, 6]: 46 mol %
Dechlorination products formed: QCB [1, 6]: 10 mol %
Dechlorination products formed: TCB 1,2,4 [1, 6]: 1 mol %
Dechlorination products formed: TCB 1,3,5 [1, 6]: 20 mol %
Dechlorination products formed: TeCB 1,2,3,5 [1, 6]: 23 mol %
Dechlorination by strain 195 [1]: dechlorinated
Utilization by strain 195 [2]: utilized
Conversion by cell extracts of strain CBDB1 [5]: capable of converting

ClC(Cl)=C(Cl)Cl [PCE, tetrachloroethene]
Dechlorination products of PCE dose ([1]; all cultures with chlorobenzene test substrate): VC and ethene
Dechlorination products [3, 7]: mixture of VC and ethene
Dechlorination products [4]: mixture of VC and ethene
Time for dechlorination to VC and ethene of re-added PCE ([4]; PCE 175 μM added day 164 and day 185): within two weeks
Lag period of dechlorination ([4]; PCE 350 μM added initially): approximately two months
Time for dehalogenation to VC and ethene after purging ([4]; after headspace purging on day 21): within five weeks
Dechlorination products by strain CBDB1 [5]: only to trans-1,2-DCE

Clc1cc(Cl)c(Cl)c(Cl)c1Cl [QCB, pentachlorobenzene]
Original clorobenzene Remaining [1, 6]: 12 mol %
Dechlorination products formed: DCB 1,3 [1, 6]: 3 mol %
Dechlorination products formed: TCB 1,2,4 [1, 6]: 15 mol %
Dechlorination products formed: TCB 1,3,5 [1, 6]: 60 mol %
Dechlorination products formed: TeCB 1,2,3,5 [1, 6]: 10 mol %
Dechlorination by strain 195 [1]: dechlorinated
Utilization by strain 195 [2]: utilized
Conversion by cell extracts of strain CBDB1 [5]: capable of converting
